Data from PMC6546705.
Results are given in words; binding and its absence hold for the method and conditions named. In cells and extracts the contact can be indirect. Some results given as binding are weak or reduced against the parent protein; the word gives no strength.

Target: MnSOD^K68R (deacetylation mimic, human, lentiviral expression) (human) (UniProt P04179)
Test: cross-linking; cell lysates treated with 0.1% glutaraldehyde for 10 min at room temperature, SDS-PAGE (semi-native gel), immunoblot with anti-MnSOD; MCF7, T47D and MnSOD-/- MEFs; also cells with shSIRT3 or selected for hydroxy-Tam resistance

B1: MnSOD^K68R (deacetylation mimic, human, lentiviral expression) (enzyme, UniProt P04179 25-222)
chain: KHSLPDLPYDYGALEPHINAQIMQLHHSKHHAAYVNNLNVTEERYQEALAKGDVTAQIALQPALKFNGGGHINHSIFWTNLSPNGGGEPKGELLEAIKRDFGSFDKFKEKLTAASVGVQGSGWGWLGFNKERGHLQIAACPNQDPLQGTTGLIPLLGIDVWEHAYYLQYKNVRPDYLKAIWNVINWENVTERYMACKK
**Q.** For B1, which binding is on record?
**A.** binds
